Assay results published in paper PMC7804408.
These are yes or no findings as the source states them, for the method shown. Some results given as binding are weak or reduced against the parent protein; the word gives no strength.

By UniProt entry, the sequences of proteins in these tests, tags left out. Residues count along the entry.
UniProt P0A850, residues 113-432: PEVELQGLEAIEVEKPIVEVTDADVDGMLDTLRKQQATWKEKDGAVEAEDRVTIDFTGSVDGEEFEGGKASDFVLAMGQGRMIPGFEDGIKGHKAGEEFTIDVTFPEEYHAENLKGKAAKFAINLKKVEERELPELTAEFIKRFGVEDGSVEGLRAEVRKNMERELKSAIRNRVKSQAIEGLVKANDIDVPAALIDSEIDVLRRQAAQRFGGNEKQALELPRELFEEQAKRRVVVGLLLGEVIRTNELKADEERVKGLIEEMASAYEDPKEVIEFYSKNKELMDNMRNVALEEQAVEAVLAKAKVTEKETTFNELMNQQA

Biological target: TFPA (TF 113-432) (E. coli) (UniProt P0A850)
Assay: NMR titration; isotopically labelled TFPA or TFN (~0.2 mM) with unlabelled λO, ZBD or ClpX∆ZBD (AAA+ added with ADP); 1H-15N TROSY and 1H-13C HMQC, 600 MHz, 22 °C; 50 mM Tris-HCl pH 7.5, 200 mM KCl, 25 mM MgCl2, 2% glycerol, 5 mM β-mercaptoethanol; both purified

B1: λ phage replication protein λO (protein, UniProt P03688 1-333)
chain: MTNTAKILNFGRGNFAGQERNVADLDDGYARLSNMLLEAYSGADLTKRQFKVLLAILRKTYGWNKPMDRITDSQLSEITKLPVKRCNEAKLELVRMNIIKQQGGMFGPNKNISEWCIPQNEGKSPKTRDKTSLKLGDCYPSKQGDTKDTITKEKRKDYSSENSGESSDQPENDLSVVKPDAAIQSGSKWGTAEDLTAAEWMFDMVKTIAPSARKPNFAGWANDIRLMRERDGRNHRDMCVLFRWACQDNFWSGNVLSPAKLRDKWTQLEINRNKQQAGVTASKPKLDLTNTDWIYGVDLKTSPHRWLTLTVSRCVGSPTTCRNSTTKSRRYSR
For B1, the binding was “binds”.
